Source: patent US20250185657A1, “PEST CONTROLLING AGENT” (priority 2022, published 2025)
Some entries share one result that the patent states for a list of compounds. At least one structure is not confirmed: it was looked up by name or label, or the drawing left a doubt.

Tests used:
[1] = test system: Diamondback Moth (Plutella xylostella); test: Diamondback moth control test (leaf piece dipping treatment); type: in vivo; conditions: 200 ppm, cabbage leaf piece dipped, third instar, five days after the treatment, 25° C.
Method: (§1) The insect mortality rate and the feeding damage prevention effect shown in the Biological Test Examples were calculated based on the following expression.
Biological Test Example 3: Diamondback Moth (Plutella xylostella) Control Test (Leaf Piece Dipping Treatment)
(§2) A cabbage leaf was cut into a piece having a diameter of 5.0 cm, and this cabbage leaf piece was immersed in 20 mL of a diluted solution of the test compound diluted to 200 ppm, and air-dried. After air-drying, the cabbage leaf piece was placed in a plastic cup, 10 third instar diamondback moth nymphs were released thereinto, the cup was covered with a lid, and the nymphs were reared in a constant temperature chamber at 25° C.

[2] = test system: Tobacco Cutworm (Spodoptera litura); test: Tobacco cutworm control test (leaf piece dipping treatment); type: in vivo; conditions: 200 ppm, cabbage leaf piece dipped, second instar larvae, five days after the treatment, 25° C.
Method: as §1
Biological Test Example 5: Tobacco Cutworm (Spodoptera litura) Control Test (Leaf Piece Dipping Treatment)
as §2, with “5 second” for “10 third”, “tobacco cutworm larvae” for “diamondback moth nymphs”, “larvae” for “nymphs”

| SMILES | insect mortality rate [1] [%] | insect mortality rate [2] [%] |
| --- | --- | --- |
| CCS(=O)(=O)c1cc(-c2ccc(F)cc2)c(C)nc1-c1noc(=O)n1-c1cc(C(F)(F)C(F)(F)F)ccn1 [Compound 68] | ≥ 80 | ≥ 80 |
| CCS(=O)(=O)c1c(-c2noc(=O)n2-c2cc(C(F)(F)F)ccn2)ncc2ccc(-c3ccc(OC(F)(F)F)cc3)cc12 [Compound 186] | – | ≥ 80 |
| CCS(=O)(=O)c1cc2cc(-c3ccc(OC(F)(F)F)cc3)ccc2nc1-c1noc(=O)n1-c1cc(C(F)(F)F)ccn1 [Compound 179] | ≥ 80 | ≥ 80 |
| CCS(=O)(=O)c1cc(-c2cc(F)cc(F)c2)cnc1-c1noc(=O)n1-c1ccc(C(F)(F)F)cn1 [Compound 16] | ≥ 80 | ≥ 80 |
| CCS(=O)(=O)c1cc(-c2ccc(C(F)(F)F)cc2)cnc1-c1noc(=O)n1-c1ccc(C(F)(F)C(F)(F)F)nn1 [Compound 184] | – | ≥ 80 |
| CCS(=O)(=O)c1cc(-c2ccc(OC(F)(F)F)cc2)cnc1-c1noc(=O)n1-c1ccc(OC(F)(F)F)cn1 [Compound 7] | ≥ 80 | ≥ 80 |
| CCS(=O)(=O)c1cc(-c2ccc(Cl)cc2)c(C)nc1-c1noc(=O)n1-c1ccc(C(F)(F)C(F)(F)F)cn1 [Compound 8] | ≥ 80 | ≥ 80 |
| CCS(=O)(=O)c1cc(-c2ccc(F)cc2)cnc1-c1noc(=O)n1-c1cc(C(F)(F)F)ccc1F [Compound 128] | ≥ 80 | – |
| CCS(=O)(=O)c1cc(-c2ccc(OC(F)(F)F)cc2)cnc1-c1noc(=S)n1-c1cc(C(F)(F)F)ccn1 [Compound 126] | ≥ 80 | ≥ 80 |
| CCS(=O)(=O)c1cc(-c2ccc(F)cc2)cnc1-c1noc(=O)n1-c1cccc(C(F)(F)F)c1 [Compound 130] | ≥ 80 | ≥ 80 |
| CCS(=O)(=O)c1cc(-c2cc(F)cc(Cl)c2)cnc1-c1noc(=O)n1-c1ccc(C(F)(F)C(F)(F)F)cn1 [Compound 23] | ≥ 80 | ≥ 80 |
| CCS(=O)(=O)c1c(-c2noc(=O)n2-c2ccc(C(F)(F)F)cn2)ncc2ccc(-c3ccc(OC(F)(F)F)cc3)cc12 [Compound 192] | ≥ 80 | ≥ 80 |
| CCS(=O)(=O)c1cc(-c2ccc(C(F)(F)F)cc2)cnc1-c1noc(=O)n1-c1ccc(C(F)(F)F)cn1 [Compound 56] | ≥ 80 | ≥ 80 |
| CCS(=O)(=O)c1sc(-c2ccc(OC(F)(F)F)cc2)nc1-c1noc(=O)n1-c1ccc(C(F)(F)F)cn1 [Compound 141] | – | ≥ 80 |
| CCS(=O)(=O)c1cc(-c2ccc(OC(F)(F)F)cc2)cnc1-c1noc(=O)n1-c1cc(F)c(C(F)(F)F)cn1 [Compound 187] | – | ≥ 80 |
| CCS(=O)(=O)c1cc(-c2ccc(OC(F)(F)F)cc2)cnc1-c1noc(=O)n1-c1ccc(SC(F)(F)F)cc1 [Compound 60] | ≥ 80 | ≥ 80 |
| CCS(=O)(=O)c1cc(-c2cc(Cl)cc(C#N)c2)cnc1-c1noc(=O)n1-c1ccc(C(F)(F)C(F)(F)F)cn1 [Compound 24] | ≥ 80 | ≥ 80 |
| CCS(=O)(=O)c1cc(-c2ccc(F)cc2)cnc1-c1noc(=O)n1-c1cc(F)ccn1 [Compound 94] | ≥ 80 | ≥ 80 |
| CCS(=O)(=O)c1cc(-c2ccc(OC(F)(F)F)cc2)cnc1-c1noc(=O)n1-c1cc(C#N)ccn1 [Compound 108] | ≥ 80 | ≥ 80 |
| CCS(=O)(=O)c1cc(-c2ccc(F)cc2)cnc1-c1noc(=S)n1-c1ccc(C(F)(F)C(F)(F)F)cn1 [Compound 14] | ≥ 80 | ≥ 80 |
| CCS(=O)(=O)c1cc(-c2cc(F)c(F)c(F)c2)cnc1-c1noc(=O)n1-c1ccc(C(F)(F)F)cn1 [Compound 59] | ≥ 80 | ≥ 80 |
| CCS(=O)(=O)c1cc(-c2ccc(F)cc2Cl)cnc1-c1noc(=O)n1-c1cc(C(F)(F)F)ccn1 [Compound 91] | ≥ 80 | ≥ 80 |
| CCS(=O)(=O)c1cc(-c2ccc(F)cc2)cnc1-c1noc(=O)n1-c1cc(SC(F)(F)F)ccn1 [Compound 110] | ≥ 80 | ≥ 80 |
| CCS(=O)(=O)c1c(-c2noc(=O)n2-c2ccc(C(F)(F)F)cc2)nc2ccc(F)cn12 [Compound 86] | ≥ 80 | – |
